Results are given in words; binding and its absence hold for the method and conditions named. Binding seen in cells or lysates may run through a third protein. Binding can be weak; no strength is given.
Target: T1, CD133 (UniProt O43490)
T1 sequence: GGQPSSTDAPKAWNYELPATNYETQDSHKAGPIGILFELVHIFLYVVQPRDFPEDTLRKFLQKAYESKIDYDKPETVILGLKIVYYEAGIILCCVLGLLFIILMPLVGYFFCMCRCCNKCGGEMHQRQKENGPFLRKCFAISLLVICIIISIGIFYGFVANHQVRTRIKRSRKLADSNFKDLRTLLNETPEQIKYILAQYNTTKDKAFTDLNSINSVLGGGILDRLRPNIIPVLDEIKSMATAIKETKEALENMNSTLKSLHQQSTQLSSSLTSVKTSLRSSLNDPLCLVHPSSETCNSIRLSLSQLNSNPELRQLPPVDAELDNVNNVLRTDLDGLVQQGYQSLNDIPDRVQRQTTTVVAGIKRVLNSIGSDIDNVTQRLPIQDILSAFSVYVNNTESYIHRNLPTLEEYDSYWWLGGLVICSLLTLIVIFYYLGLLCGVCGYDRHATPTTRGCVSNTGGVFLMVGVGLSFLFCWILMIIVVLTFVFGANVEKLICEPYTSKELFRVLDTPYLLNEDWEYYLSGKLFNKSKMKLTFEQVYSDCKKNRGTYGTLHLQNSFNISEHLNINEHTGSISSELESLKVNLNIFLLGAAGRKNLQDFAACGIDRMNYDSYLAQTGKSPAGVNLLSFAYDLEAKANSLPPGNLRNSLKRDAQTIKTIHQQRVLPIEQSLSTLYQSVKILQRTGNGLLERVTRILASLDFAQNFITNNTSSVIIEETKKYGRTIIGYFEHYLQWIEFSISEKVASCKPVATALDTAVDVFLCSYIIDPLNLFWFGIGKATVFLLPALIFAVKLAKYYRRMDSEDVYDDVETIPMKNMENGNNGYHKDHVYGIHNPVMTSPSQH
Test: co-IP; lysates of BAKP cells induced with Dox for 24 h to express CD133; immunoprecipitation with anti-CD133 bound to beads; SDS-PAGE and immunoblot with anti-p85 subunit of PI3K

## p85 subunit of PI3K (human (endogenous in BAKP))
  binding: binds

Source: article PMC11852824
